Test results reported in the supplement of paper PMC11732987, “Enantioselective OTUD7B fragment discovery through chemoproteomics screening and high-throughput optimisation” (Communications Chemistry, 2025).
The other results are listed elsewhere or left out. The data scatter; read single values as rough.

These molecules were tested on T1, SLK C358 (assay: log2 mean competition ratio of IA-DTB cysteine labelling (DMSO/compound) (log2 ratio); higher = stronger cysteine engagement by compound). Settings: 50 µM; treatment time: 4 h; cell line lysate: HEK293T.
T1 sequence (whole entry): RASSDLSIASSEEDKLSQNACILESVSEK
Experimental: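 IA-DTB competitive cysteine chemoproteomics in HEK293T RIPA lysate. Lysates were treated with compound 29 or 30 at 50 or 200 µM for 4 h, then IA-DTB (500 µM, 1 h), trypsin-digested, NeutrAvidin-enriched and analysed by diaPASEF. Competition ratio = intensity DMSO / intensity compound (n=4 treated, n=64 DMSO); binding: mean log2 CR ≥ 1 and p ≤ 0.05 plus QC filters. Target is the cysteine site.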

SMILES	log2 mean competition ratio
O=C(CCl)N[C@H]1CCCc2ccccc21	-0.24
O=C(CCl)N[C@@H]1CCCc2ccccc21	-0.315

Same assay, conditions: 200 µM; treatment time: 4 h; cell line lysate: HEK293T

SMILES	log2 mean competition ratio
O=C(CCl)N[C@H]1CCCc2ccccc21	-0.189
O=C(CCl)N[C@@H]1CCCc2ccccc21	-0.0833
